The target of the test is SKP1 (human) (UniProt P63208). Briefly: cryo-EM structure; GLMN-SCF^FBXL17-BACH1-BTB complex formed with native (untreated) GST-BACH1-BTB on a glutathione column, tags cleaved by TEV, SEC; monomeric (mSCF^BTB) and dimeric (dSCF^BTB-I, -II) species; both purified.

Sequences of proteins named here, by UniProt entry; tags and fusion partners are left off. Residues count along the entry.
UniProt Q9UF56, residues 310-701: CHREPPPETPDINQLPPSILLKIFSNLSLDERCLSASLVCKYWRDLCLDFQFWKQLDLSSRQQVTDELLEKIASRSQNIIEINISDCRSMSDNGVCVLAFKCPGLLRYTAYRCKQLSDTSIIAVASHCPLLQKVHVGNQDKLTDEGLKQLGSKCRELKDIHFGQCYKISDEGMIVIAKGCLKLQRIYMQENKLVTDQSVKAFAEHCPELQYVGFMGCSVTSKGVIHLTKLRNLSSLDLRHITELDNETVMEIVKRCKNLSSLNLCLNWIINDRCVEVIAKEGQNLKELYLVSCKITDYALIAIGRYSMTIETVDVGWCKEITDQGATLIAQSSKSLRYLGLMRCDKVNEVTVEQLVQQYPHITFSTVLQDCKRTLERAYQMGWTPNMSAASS

No constants are given. Whether binding was seen depends on the method and setting. A result given as binding can be weak or reduced; the word gives no strength.

Consider “FBXL17 (amino acids 310-701) (from UniProt Q9UF56 310-701) (domain or fragment)”, for which the binding entry is reported as “binds”.

Values taken from doi:10.1101/2024.06.03.594717.
